These results are taken from paper PMC8260879.

Protein sequences, listed by entry. Tags and fused reporters are not part of them. Lines headed by an entry give the natural chain unless they say otherwise; changes in a name come on top. Chains listed by the source or under a name are the forms on record and can include a tag or linker.
EphA2 L913F mutant tagged with mTURQ or EYFP (P29317-1, form named): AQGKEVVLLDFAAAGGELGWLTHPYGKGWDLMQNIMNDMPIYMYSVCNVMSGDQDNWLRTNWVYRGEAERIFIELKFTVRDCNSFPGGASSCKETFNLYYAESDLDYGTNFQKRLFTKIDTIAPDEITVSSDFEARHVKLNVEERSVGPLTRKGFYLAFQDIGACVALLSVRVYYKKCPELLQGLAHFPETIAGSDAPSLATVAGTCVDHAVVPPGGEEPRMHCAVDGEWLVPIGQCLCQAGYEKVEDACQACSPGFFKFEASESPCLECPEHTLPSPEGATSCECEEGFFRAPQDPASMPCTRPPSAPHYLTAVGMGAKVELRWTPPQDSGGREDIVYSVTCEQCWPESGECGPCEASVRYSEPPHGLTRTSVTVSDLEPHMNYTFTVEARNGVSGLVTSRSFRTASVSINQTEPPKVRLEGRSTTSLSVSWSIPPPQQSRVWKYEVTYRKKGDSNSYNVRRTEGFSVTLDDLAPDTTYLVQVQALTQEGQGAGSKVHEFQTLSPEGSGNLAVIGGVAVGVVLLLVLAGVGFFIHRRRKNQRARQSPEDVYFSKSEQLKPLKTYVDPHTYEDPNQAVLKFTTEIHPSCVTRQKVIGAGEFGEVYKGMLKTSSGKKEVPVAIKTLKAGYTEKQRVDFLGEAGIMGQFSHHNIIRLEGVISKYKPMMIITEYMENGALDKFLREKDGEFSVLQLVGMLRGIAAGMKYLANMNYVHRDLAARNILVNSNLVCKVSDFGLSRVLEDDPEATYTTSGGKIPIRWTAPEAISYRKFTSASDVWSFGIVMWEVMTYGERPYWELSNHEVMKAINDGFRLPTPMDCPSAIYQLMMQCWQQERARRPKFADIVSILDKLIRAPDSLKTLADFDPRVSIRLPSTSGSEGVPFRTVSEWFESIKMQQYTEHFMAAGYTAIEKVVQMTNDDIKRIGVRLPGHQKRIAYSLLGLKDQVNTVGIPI

No constants are given. Whether binding was seen depends on the method and setting. Some entries that bind do so weakly or less than the wild type.

This assay has as its target EphA2 L913F mutant tagged with mTURQ or EYFP (human) (UniProt P29317). Nature of the assay: fluorescence intensity fluctuation (FIF) analysis; molecular brightness in regions of the basolateral membrane of transfected HEK293 cells, no ligand, data over the whole range of receptor concentrations.

Turning to “EphA2 L913F mutant tagged with mTURQ or EYFP (from UniProt P29317-1 24-976) (receptor)”, the binding result is reported as “binds”.
